Results: publication PMC8384837
Positions count from the first letter of the chain named. Some of the results follow. For part of these data: At the low end of the ranking the order means little. For part of these data: The exact form of the protein is not confirmed.

Key:
Details in all cases: yeast three-hybrid, YBZ-1, SC-Leu-His + 0.5 mM 3-AT, 4 days
[1] = target: T1, PUM1 PUF domain R2-VFQ R3-THE R4-TFR N899V + Y900F + C935T + R936H + Q939E + N971T + H972F + Q975R (UniProt Q14671)
T1 sequence: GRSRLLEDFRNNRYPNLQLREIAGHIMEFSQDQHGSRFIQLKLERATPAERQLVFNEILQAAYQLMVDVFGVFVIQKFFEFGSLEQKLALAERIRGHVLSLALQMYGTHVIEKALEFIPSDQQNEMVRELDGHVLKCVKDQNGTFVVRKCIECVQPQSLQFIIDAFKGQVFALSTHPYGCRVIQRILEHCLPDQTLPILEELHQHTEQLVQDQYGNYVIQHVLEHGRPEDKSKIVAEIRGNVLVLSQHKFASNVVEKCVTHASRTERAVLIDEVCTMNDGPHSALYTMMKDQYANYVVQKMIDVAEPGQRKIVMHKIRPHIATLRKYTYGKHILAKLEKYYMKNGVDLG

[2] = target: T2, PUM1 PUF domain R3-THE R4-TFR R7-NPG C935T + R936H + Q939E + N971T + H972F + Q975R + S1079N + N1080P + E1083G (Homo sapiens) (UniProt Q14671)
T2 sequence: T1 sequence with V72N, F73Y, S252N, N253P, E256G

[3] = target: T3, PUM1 PUF domain R3-THE R4-TFR C935T + R936H + Q939E + N971T + H972F + Q975R (UniProt Q14671)
T3 sequence: T1 sequence with V72N, F73Y

[4] = target: T4, PUM1 PUF domain R5-PHQ R6-SWD C1007P + R1008H + N1043S + Y1044W + Q1047D (UniProt Q14671)
T4 sequence: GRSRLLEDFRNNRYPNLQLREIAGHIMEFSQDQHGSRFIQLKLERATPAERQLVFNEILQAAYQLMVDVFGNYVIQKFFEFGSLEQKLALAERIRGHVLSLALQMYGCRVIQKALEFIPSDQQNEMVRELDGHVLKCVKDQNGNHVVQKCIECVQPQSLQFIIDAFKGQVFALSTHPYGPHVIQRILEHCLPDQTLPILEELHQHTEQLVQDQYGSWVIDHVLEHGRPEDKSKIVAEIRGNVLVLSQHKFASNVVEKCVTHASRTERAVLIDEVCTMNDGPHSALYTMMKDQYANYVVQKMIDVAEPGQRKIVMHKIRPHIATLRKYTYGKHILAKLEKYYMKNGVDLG

[5] = target: T5, PUM1 PUF domain R6-SWD R7-NPG N1043S + Y1044W + Q1047D + S1079N + N1080P + E1083G (UniProt Q14671)
T5 sequence: T4 sequence with P180C, H181R, S252N, N253P, E256G

[6] = target: T6, PUM1 PUF domain R6-SWD R7-NPG N1043S + Y1044W + Q1047D + S1079N + N1080P + E1083G (Homo sapiens) (UniProt Q14671)
T6 sequence: T4 sequence with P180C, H181R, S252N, N253P, E256G

Sequence “GGCUAGAACUAGUGGAUCCCCCGGCGCCCGGCGGCUCGAGCCCGGGUAAGUCAGAGGCGUCUGCAUGCCGCCGGGCGCCAUGCCUGCAGGUCGACUCUAGAAAACAUG” has a binding signal (log2 enrichment (interaction score)) [1] of -5.64 and a binding signal (log2 enrichment (interaction score)) [2] of less than -1.32.

In the case of “GGCUAGAACUAGUGGAUCCCCCGGCGCCCGGCGGCUCGAGCCCGGGUAAGUAUAGCAAGUCUGCAUGCCGCCGGGCGCCAUGCCUGCAGGUCGACUCUAGAAAACAUG”, the binding signal (log2 enrichment (interaction score)) [1] is reported as less than -5.82 and the binding signal (log2 enrichment (interaction score)) [2] is reported as -1.58.

For “GGCUAGAACUAGUGGAUCCCCCGGCGCCCGGCGGCUCGAGCCCGGGUAAGUUGAGGUAGUCUGCAUGCCGCCGGGCGCCAUGCCUGCAGGUCGACUCUAGAAAACAUG”, the binding signal (log2 enrichment (interaction score)) [1] was -5.38, the binding signal (log2 enrichment (interaction score)) [3] was -6.82 and the binding signal (log2 enrichment (interaction score)) [4] was -8.41. For the same sequence, the binding signal (log2 enrichment (interaction score)) [5] was -2.22.

In the case of “GGCUAGAACUAGUGGAUCCCCCGGCGCCCGGCGGCUCGAGCCCGGGUAAGUAGAAGCCGUCUGCAUGCCGCCGGGCGCCAUGCCUGCAGGUCGACUCUAGAAAACAUG”, the binding signal (log2 enrichment (interaction score)) [1] is reported as -5, the binding signal (log2 enrichment (interaction score)) [3] is reported as -6.09 and the binding signal (log2 enrichment (interaction score)) [4] is reported as -7.16.

Work on “GGCUAGAACUAGUGGAUCCCCCGGCGCCCGGCGGCUCGAGCCCGGGUAAGGCGGGGUAGUCUGCAUGCCGCCGGGCGCCAUGCCUGCAGGUCGACUCUAGAAAACAUG” yielded a binding signal (log2 enrichment (interaction score)) [1] of -5.66 and a binding signal (log2 enrichment (interaction score)) [2] of -1.14.

With “GGCUAGAACUAGUGGAUCCCCCGGCGCCCGGCGGCUCGAGCCCGGGUAAGUUGCAUGAGUCUGCAUGCCGCCGGGCGCCAUGCCUGCAGGUCGACUCUAGAAAACAUG” the binding signal (log2 enrichment (interaction score)) [1] was -5.68 and the binding signal (log2 enrichment (interaction score)) [2] was -1.6.

Work on “GGCUAGAACUAGUGGAUCCCCCGGCGCCCGGCGGCUCGAGCCCGGGUAAGUAGAGAUCGUCUGCAUGCCGCCGGGCGCCAUGCCUGCAGGUCGACUCUAGAAAACAUG” yielded a binding signal (log2 enrichment (interaction score)) [1] of -5.37 and a binding signal (log2 enrichment (interaction score)) [2] of -1.36.

“GGCUAGAACUAGUGGAUCCCCCGGCGCCCGGCGGCUCGAGCCCGGGUAAGUGUUAGAAGUCUGCAUGCCGCCGGGCGCCAUGCCUGCAGGUCGACUCUAGAAAACAUG” gave a binding signal (log2 enrichment (interaction score)) [1] of less than -5.5, a binding signal (log2 enrichment (interaction score)) [3] of -7.39 and a binding signal (log2 enrichment (interaction score)) [6] of -1.51.

For “GGCUAGAACUAGUGGAUCCCCCGGCGCCCGGCGGCUCGAGCCCGGGUAAGUUGAAGUUGUCUGCAUGCCGCCGGGCGCCAUGCCUGCAGGUCGACUCUAGAAAACAUG”, the binding signal (log2 enrichment (interaction score)) [1] was less than -5.84, the binding signal (log2 enrichment (interaction score)) [3] was -6.19 and the binding signal (log2 enrichment (interaction score)) [4] was -9.14. The binding signal (log2 enrichment (interaction score)) [6] was -0.47.

“GGCUAGAACUAGUGGAUCCCCCGGCGCCCGGCGGCUCGAGCCCGGGUAAGUCCCCUAAGUCUGCAUGCCGCCGGGCGCCAUGCCUGCAGGUCGACUCUAGAAAACAUG” was tested, and the binding signal (log2 enrichment (interaction score)) [1] was -4.98 and the binding signal (log2 enrichment (interaction score)) [2] was -1.4.

With “GGCUAGAACUAGUGGAUCCCCCGGCGCCCGGCGGCUCGAGCCCGGGUAAGUAGAUAGAGUCUGCAUGCCGCCGGGCGCCAUGCCUGCAGGUCGACUCUAGAAAACAUG” the binding signal (log2 enrichment (interaction score)) [1] was -5.55, the binding signal (log2 enrichment (interaction score)) [3] was -6.95 and the binding signal (log2 enrichment (interaction score)) [4] was -8.4.

Sequence “GGCUAGAACUAGUGGAUCCCCCGGCGCCCGGCGGCUCGAGCCCGGGUAAGUGUCCGUUGUCUGCAUGCCGCCGGGCGCCAUGCCUGCAGGUCGACUCUAGAAAACAUG” has a binding signal (log2 enrichment (interaction score)) [1] of -4.78 and a binding signal (log2 enrichment (interaction score)) [2] of -1.24.

“GGCUAGAACUAGUGGAUCCCCCGGCGCCCGGCGGCUCGAGCCCGGGUAAGAUGAAGAAGUCUGCAUGCCGCCGGGCGCCAUGCCUGCAGGUCGACUCUAGAAAACAUG” showed a binding signal (log2 enrichment (interaction score)) [1] of -6.38, a binding signal (log2 enrichment (interaction score)) [3] of -6.8 and a binding signal (log2 enrichment (interaction score)) [4] of less than -7.88. For the same sequence, the binding signal (log2 enrichment (interaction score)) [6] was -0.96.

Sequence “GGCUAGAACUAGUGGAUCCCCCGGCGCCCGGCGGCUCGAGCCCGGGUAAGGUUAUCCAGUCUGCAUGCCGCCGGGCGCCAUGCCUGCAGGUCGACUCUAGAAAACAUG” has a binding signal (log2 enrichment (interaction score)) [1] of -5.51, a binding signal (log2 enrichment (interaction score)) [3] of -6.75 and a binding signal (log2 enrichment (interaction score)) [5] of -2.08.

In the case of “GGCUAGAACUAGUGGAUCCCCCGGCGCCCGGCGGCUCGAGCCCGGGUAAGUUUAAGACGUCUGCAUGCCGCCGGGCGCCAUGCCUGCAGGUCGACUCUAGAAAACAUG”, the binding signal (log2 enrichment (interaction score)) [1] is reported as -5.43, the binding signal (log2 enrichment (interaction score)) [3] is reported as -7.71 and the binding signal (log2 enrichment (interaction score)) [6] is reported as -1.23.

“GGCUAGAACUAGUGGAUCCCCCGGCGCCCGGCGGCUCGAGCCCGGGUAAGUUCAAGUUGUCUGCAUGCCGCCGGGCGCCAUGCCUGCAGGUCGACUCUAGAAAACAUG” was tested, and the binding signal (log2 enrichment (interaction score)) [1] was -5.5, the binding signal (log2 enrichment (interaction score)) [3] was less than -6.26 and the binding signal (log2 enrichment (interaction score)) [4] was less than -6.97. It also gave a binding signal (log2 enrichment (interaction score)) [6] of -0.26.
